No constants are given. Whether binding was seen depends on the method and setting. Some binding calls cover weakened binding; strength is not graded here.
Columns and labels:
[1] = target: HLA-B*0702 on transfected T2 cells (human) (UniProt P01889); assay: T2 cells transfected with HLA-B*0702
[2] = target: HLA-B*0702 on transfected T2 cells (human) (UniProt P01889); assay: immunofluorescence binding assay on transfected T2 cells
[3] = target: HLA-B*0702 on transfected T2 cells (human) (UniProt P01889); assay: HLA-B7 expression on T2 cells transfected with HLA-B*0702, flow cytometry with anti-HLA-B7 mAb HB59

Measured: binding

SPRWWPTCL [iCE peptide … (nonamer encoded by the +1 alternative ORF of the intestinal carboxylesterase gene)]
binds: [1] | [2] | [3]
